# Test results published in patent US6784155B1, “Inhibitor and stimulator of stem cell proliferation and uses thereof” (Wellstat Therapeutics Corporation, priority 1996, dated 2004).
# For at least one compound, name, drawing or mass did not settle the structure.
# What was measured:
# [1] = test system: CFU-MIX; test: CFU-MIX cycling assay in vitro (Ara C kill); format: cell-based, mouse; conditions: Table 27, Balb/c bone marrow
# Experimental: A similar assay can be performed in vitro, using the cycling status of CFU-MIX instead of CFU-S. The assay is performed as described above for the CFU-S assay except that cytosine arabinoside (Ara C, 30 micrograms/ml) is used as the cycle-specific toxic agent instead of high dose tritiated thymidine (see B. I. Lord in Haemopoiesis—A Practical Approach, N. G. Testa and G. Molineux (Eds.), IRL Press 1993; Pragnell et al. in Culture of Hematopoietic Cells, R. I. Freshney, I. B. Pragnell and M. G. Freshney (Eds.), Wiley Liss 1994) and a mouse strain with high endogenous cycling rates (Balb/c) is used instead of testosterone-treated BDFI mice.
# 24 hours later (Day 1), varying doses of peptide 43-55 or vehicle were injected i.v. Bone marrow was harvested on Day 2 and the […] cycling assay conducted as in Example 14. Specifically, mice were sacrificed and single cell bone marrow suspensions prepared from the femurs. The cells were washed once and the concentration adjusted to 5×10^6 cells/ml in Fischer medium. […]
# The cells were readjusted to 5×10^4-10^6/ml in Fischer's medium and 0.5 ml of cell suspension added to 5 ml of Methocult M3430 methylcellulose medium (Stem Cell Technologies, Vancouver, British Columbia). […] CFU-MIX colonies were counted with the use of an inverted microscope after 7 days of incubation at 37° C. […]
# [2] = test system: CFU-MIX; test: Stimulation of cycling of quiescent murine stem cells, CFU-MIX cycling assay in vitro; format: cell-based, mouse; conditions: Table 42, untreated B6D2F1 bone marrow, 10^−5M
# Experimental: Microgram per milliliter doses of hemoglobin chains, myoglobin and peptides were assayed for stimulation of quiescent stem cells. Bone marrow was obtained from untreated B6D2F1 tested in the CFU-MIX cycling assay as in Example 24. Stem cells isolated from untreated B6D2F1 mice are normally slowly cycling unless stimulated (e.g. by testosterone propionate (cf. Example 1) or chemotherapy such as 5FU (cf. Example 4)) to enter into cycle.
compound,measurement,setting,value
"CC(C)C[C@H](NC(=O)[C@H](CCCCN)NC(=O)[C@H](CCCN=C(N)N)NC(=O)[C@H](C)NC(=O)[C@H](CO)NC(=O)[C@H](CCCCN)NC(=O)[C@H](CCCN=C(N)N)NC(=O)[C@H](C)NC(=O)CNC(=O)[C@@H](NC(=O)[C@H](Cc1ccccc1)NC(=O)CNC(=O)CNC(=O)[C@@H](N)Cc1ccccc1)[C@@H](C)O)C(=O)N[C@@H](C)C(=O)N[C@@H](CC(N)=O)C(=O)N[C@@H](CCC(N)=O)C(=O)O [Nociceptin, reference compound]",% Kill,[1]; 10^−7M,6%
same,% Kill,[1]; 10^−9M,0%
same,% Kill,[2],36%
